Results taken from article PMC11102469.
Results are given in words; binding and its absence hold for the method and conditions named. Binding can be weak; no strength is given. Tags and fused reporters may be left off the sequences shown.

Target: T1, MBP-tagged Rab11B (full-length, wild type) (Toxoplasma gondii) (UniProt Q7Z158)
T1 sequence: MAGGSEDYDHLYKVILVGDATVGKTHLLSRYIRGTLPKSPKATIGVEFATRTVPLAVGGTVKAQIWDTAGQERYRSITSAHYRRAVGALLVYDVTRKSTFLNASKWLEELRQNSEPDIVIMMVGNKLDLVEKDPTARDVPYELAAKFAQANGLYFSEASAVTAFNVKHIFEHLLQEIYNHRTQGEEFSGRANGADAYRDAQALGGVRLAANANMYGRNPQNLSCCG
Experiment: pull-down; 4 µg MBP-Rab or MBP-Rab^QL held on 20 µL MBP agarose resin as bait (MBP protein binding buffer with 1 mM DTT, 1 mM PMSF, 4 °C, 2 h); 4 µg his-TBC9 or his-TBC9^R74A in 500 µL his protein binding buffer, 4 °C, 2 h; washes with 0.1% Triton X-100; Western blot with anti-His and anti-MBP; both purified

His-tagged TBC9^R74A (GAP-inactive mutant) (Toxoplasma gondii)
binding: binds
